Laboratory results reported in publication PMC6770187.
These are yes or no findings as the source states them, for the method shown. Binding seen in cells or lysates may run through a third protein. A yes stands for co-enrichment or nearness to the bait. Other partners may have been found. For some of these results: Where a sequence is shown, tags or fusion partners need not be part of it.

The chains behind the UniProt entries cited, without tags or fusion partners.
UniProt Q04690: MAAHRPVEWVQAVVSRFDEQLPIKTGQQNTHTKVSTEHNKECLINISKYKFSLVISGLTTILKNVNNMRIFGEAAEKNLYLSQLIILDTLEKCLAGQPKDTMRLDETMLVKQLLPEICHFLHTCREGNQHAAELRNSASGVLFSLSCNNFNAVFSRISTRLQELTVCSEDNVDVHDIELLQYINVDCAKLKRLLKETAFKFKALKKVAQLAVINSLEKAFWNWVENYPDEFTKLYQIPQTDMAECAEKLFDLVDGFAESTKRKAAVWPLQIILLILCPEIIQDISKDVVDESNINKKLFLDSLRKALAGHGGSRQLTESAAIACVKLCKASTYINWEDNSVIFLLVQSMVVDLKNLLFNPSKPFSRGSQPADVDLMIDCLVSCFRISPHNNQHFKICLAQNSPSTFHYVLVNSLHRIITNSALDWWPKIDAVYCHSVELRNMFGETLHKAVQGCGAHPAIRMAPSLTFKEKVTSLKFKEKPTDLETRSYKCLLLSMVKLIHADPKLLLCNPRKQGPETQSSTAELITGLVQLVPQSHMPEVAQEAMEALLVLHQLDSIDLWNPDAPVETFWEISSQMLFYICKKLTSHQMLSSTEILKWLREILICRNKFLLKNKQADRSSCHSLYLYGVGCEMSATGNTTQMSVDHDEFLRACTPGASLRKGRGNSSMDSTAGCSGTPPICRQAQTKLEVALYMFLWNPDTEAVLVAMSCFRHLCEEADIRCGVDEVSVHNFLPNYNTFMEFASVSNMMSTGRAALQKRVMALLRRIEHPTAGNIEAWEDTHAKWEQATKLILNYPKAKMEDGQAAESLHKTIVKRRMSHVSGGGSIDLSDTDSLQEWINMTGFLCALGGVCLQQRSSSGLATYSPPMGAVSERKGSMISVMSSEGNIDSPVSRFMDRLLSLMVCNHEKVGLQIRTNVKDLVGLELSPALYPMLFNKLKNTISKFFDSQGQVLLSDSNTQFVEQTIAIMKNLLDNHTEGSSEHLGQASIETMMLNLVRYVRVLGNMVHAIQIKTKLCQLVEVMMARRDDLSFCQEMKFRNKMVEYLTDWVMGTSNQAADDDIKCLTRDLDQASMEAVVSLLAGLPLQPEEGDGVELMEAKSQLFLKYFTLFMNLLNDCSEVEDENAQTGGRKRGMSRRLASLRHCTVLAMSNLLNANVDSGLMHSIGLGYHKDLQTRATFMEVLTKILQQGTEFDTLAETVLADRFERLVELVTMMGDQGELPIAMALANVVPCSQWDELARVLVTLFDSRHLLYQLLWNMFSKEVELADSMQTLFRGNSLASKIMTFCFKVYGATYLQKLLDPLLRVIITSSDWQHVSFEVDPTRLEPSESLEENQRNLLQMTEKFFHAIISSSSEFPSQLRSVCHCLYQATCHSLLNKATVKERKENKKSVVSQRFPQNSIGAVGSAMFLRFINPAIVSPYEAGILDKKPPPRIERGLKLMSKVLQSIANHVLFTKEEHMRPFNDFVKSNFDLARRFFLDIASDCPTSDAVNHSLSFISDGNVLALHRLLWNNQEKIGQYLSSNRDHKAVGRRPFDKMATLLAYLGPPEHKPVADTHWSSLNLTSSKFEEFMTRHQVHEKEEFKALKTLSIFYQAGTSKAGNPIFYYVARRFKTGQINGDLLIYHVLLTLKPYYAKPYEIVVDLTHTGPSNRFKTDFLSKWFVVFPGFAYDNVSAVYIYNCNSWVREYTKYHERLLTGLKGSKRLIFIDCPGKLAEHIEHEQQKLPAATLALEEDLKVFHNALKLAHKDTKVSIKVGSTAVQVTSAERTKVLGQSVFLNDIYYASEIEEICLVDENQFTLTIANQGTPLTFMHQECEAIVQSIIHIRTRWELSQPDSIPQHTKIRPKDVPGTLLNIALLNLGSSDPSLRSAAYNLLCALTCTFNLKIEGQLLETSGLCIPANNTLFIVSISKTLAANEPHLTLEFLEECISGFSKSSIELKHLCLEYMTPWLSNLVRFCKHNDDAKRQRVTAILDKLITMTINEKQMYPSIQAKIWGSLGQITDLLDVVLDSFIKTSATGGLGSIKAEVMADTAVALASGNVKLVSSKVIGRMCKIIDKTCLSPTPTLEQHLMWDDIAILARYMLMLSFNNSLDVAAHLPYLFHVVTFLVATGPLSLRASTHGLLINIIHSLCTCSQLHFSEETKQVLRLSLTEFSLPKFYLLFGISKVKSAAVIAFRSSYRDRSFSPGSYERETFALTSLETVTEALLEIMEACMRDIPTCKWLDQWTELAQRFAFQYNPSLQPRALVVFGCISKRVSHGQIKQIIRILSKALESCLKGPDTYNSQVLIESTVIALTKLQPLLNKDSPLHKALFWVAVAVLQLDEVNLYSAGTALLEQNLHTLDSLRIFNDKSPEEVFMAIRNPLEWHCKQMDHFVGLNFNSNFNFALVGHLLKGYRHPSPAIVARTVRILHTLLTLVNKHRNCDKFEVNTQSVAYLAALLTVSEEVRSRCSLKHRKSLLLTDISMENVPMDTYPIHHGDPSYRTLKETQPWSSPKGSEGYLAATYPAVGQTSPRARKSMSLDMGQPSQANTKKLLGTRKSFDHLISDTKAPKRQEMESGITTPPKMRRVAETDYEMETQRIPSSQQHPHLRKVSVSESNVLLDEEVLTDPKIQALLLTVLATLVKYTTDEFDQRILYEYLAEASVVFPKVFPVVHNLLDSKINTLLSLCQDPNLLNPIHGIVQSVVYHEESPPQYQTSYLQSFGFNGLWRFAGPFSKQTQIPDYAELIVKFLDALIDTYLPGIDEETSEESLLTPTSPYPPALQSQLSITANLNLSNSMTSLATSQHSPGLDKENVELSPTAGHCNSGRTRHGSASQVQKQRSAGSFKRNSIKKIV
UniProt P62308: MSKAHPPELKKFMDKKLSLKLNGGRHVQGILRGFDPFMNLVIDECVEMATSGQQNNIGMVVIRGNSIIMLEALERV
UniProt P46379: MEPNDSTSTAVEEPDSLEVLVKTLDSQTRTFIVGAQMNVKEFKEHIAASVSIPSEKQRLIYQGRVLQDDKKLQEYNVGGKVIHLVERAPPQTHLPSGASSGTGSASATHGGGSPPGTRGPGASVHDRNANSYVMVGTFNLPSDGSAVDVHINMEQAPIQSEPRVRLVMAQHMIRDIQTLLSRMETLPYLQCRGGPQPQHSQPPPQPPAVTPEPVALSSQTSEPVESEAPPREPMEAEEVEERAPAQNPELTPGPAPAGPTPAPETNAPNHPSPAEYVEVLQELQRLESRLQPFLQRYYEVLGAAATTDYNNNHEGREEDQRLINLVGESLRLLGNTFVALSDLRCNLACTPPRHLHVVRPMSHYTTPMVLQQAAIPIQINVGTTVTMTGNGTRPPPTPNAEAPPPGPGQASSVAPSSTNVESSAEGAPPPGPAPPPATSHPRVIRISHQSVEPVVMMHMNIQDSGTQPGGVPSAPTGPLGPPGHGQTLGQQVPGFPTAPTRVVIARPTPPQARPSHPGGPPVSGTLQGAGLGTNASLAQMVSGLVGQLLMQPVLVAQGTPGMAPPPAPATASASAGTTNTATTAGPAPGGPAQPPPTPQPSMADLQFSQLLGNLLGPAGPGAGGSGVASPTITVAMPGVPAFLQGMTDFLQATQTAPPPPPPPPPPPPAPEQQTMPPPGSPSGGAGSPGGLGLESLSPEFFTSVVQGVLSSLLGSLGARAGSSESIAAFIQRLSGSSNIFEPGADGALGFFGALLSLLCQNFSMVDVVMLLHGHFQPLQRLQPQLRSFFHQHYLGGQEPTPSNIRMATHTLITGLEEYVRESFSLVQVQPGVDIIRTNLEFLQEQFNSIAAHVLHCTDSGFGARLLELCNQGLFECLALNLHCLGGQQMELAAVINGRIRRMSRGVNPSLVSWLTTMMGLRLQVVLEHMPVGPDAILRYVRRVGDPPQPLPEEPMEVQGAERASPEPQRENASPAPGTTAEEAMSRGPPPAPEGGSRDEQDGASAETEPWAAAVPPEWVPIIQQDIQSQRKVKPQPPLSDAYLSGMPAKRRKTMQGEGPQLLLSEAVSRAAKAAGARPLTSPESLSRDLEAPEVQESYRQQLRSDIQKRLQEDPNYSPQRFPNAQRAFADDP
UniProt Q9UBQ5: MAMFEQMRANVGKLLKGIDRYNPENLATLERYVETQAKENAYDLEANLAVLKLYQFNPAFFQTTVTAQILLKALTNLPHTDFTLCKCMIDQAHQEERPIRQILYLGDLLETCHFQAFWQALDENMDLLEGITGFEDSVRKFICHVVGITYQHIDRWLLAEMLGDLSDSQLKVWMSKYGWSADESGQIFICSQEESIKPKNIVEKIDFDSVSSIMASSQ
UniProt O75533: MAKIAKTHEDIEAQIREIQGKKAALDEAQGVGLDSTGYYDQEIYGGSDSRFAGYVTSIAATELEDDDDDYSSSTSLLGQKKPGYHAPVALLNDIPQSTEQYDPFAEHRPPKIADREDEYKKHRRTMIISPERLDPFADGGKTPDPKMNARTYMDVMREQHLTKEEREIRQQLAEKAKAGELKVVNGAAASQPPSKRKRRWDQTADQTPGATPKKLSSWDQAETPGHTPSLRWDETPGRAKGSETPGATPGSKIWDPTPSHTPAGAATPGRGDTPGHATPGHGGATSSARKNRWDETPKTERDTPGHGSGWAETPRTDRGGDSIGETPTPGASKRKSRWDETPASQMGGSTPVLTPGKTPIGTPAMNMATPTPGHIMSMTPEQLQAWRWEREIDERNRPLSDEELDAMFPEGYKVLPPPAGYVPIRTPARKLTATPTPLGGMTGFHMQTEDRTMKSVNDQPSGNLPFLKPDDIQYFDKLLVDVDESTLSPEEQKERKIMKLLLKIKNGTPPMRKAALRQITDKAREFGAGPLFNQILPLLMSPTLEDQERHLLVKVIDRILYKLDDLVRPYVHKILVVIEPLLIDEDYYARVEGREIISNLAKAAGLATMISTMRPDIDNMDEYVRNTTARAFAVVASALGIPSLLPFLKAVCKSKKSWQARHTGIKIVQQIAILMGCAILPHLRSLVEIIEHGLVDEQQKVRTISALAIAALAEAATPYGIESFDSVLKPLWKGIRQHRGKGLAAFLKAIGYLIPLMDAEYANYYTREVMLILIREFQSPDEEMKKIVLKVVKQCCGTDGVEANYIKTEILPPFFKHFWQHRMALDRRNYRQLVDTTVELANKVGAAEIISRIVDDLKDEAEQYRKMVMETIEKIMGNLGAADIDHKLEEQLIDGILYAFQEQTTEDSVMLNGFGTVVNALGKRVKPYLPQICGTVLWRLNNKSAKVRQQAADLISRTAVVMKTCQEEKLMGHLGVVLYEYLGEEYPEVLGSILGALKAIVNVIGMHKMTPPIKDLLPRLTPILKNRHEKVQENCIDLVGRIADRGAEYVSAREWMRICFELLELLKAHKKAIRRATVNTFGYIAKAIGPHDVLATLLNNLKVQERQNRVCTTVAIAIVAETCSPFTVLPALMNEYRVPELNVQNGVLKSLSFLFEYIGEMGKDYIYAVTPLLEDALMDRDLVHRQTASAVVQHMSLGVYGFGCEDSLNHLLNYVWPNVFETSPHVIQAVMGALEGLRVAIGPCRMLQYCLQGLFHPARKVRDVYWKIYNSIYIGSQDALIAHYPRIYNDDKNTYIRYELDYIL
UniProt Q04695: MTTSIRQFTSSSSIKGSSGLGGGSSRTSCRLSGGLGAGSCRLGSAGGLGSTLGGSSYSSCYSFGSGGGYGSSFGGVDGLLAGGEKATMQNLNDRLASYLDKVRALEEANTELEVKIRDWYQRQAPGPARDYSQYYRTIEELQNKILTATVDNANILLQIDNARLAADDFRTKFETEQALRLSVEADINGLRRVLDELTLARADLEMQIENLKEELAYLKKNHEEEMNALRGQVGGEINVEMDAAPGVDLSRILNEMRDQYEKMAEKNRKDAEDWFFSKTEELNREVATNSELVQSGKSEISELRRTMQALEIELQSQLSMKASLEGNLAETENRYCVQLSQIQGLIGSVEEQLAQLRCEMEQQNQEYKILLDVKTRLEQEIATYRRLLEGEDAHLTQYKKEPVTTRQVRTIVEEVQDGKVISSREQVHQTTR
UniProt O76013: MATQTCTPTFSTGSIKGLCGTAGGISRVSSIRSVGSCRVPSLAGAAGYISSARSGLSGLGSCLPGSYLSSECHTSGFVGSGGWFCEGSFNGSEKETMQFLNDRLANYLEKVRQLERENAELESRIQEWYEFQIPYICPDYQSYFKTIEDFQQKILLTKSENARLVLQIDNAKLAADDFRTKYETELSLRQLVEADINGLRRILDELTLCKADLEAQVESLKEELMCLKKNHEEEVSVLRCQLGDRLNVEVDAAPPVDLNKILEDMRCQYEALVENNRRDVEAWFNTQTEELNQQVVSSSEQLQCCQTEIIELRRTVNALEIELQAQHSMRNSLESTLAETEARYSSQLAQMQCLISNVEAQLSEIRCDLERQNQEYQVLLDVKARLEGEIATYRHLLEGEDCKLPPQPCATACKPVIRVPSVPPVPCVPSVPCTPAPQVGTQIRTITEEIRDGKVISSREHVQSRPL

B1: Interferon-induced protein with tetratricopeptide repeats 3 (protein, UniProt O14879 1-490)
chain: MSEVTKNSLEKILPQLKCHFTWNLFKEDSVSRDLEDRVCNQIEFLNTEFKATMYNLLAYIKHLDGNNEAALECLRQAEELIQQEHADQAEIRSLVTWGNYAWVYYHLGRLSDAQIYVDKVKQTCKKFSNPYSIEYSELDCEEGWTQLKCGRNERAKVCFEKALEEKPNNPEFSSGLAIAMYHLDNHPEKQFSTDVLKQAIELSPDNQYVKVLLGLKLQKMNKEAEGEQFVEEALEKSPCQTDVLRSAAKFYRRKGDLDKAIELFQRVLESTPNNGYLYHQIGCCYKAKVRQMQNTGESEASGNKEMIEALKQYAMDYSNKALEKGLNPLNAYSDLAEFLETECYQTPFNKEVPDAEKQQSHQRYCNLQKYNGKSEDTAVQHGLEGLSISKKSTDKEEIKDQPQNVSENLLPQNAPNYWYLQGLIHKQNGDLLQAAKCYEKELGRLLRDAPSGIGSIFLSASELEDGSEEMGQGAVSSSPRELLSNSEQLN
B2: Keratin 13 (protein, UniProt P13646 1-458)
chain: MSLRLQSSSASYGGGFGGGSCQLGGGRGVSTCSTRFVSGGSAGGYGGGVSCGFGGGAGSGFGGGYGGGLGGGYGGGLGGGFGGGFAGGFVDFGACDGGLLTGNEKITMQNLNDRLASYLEKVRALEEANADLEVKIRDWHLKQSPASPERDYSPYYKTIEELRDKILTATIENNRVILEIDNARLAADDFRLKYENELALRQSVEADINGLRRVLDELTLSKTDLEMQIESLNEELAYMKKNHEEEMKEFSNQVVGQVNVEMDATPGIDLTRVLAEMREQYEAMAERNRRDAEEWFHTKSAELNKEVSTNTAMIQTSKTEITELRRTLQGLEIELQSQLSMKAGLENTVAETECRYALQLQQIQGLISSIEAQLSELRSEMECQNQEYKMLLDIKTRLEQEIATYRSLLEGQDAKMIGFPSSAGSVSPRSTSVTTTSSASVTTTSNASGRRTSDVRRP
B3: Proteasome inhibitor PI31 subunit (protein, UniProt Q92530 1-271)
chain: MAGLEVLFASAAPAITCRQDALVCFLHWEVVTHGYFGLGVGDQPGPNDKKSELLPAGWNNNKDLYVLRYEYKDGSRKLLVKAITVESSMILNVLEYGSQQVADLTLNLDDYIDAEHLGDFHRTYKNSEELRSRIVSGIITPIHEQWEKANVSSPHREFPPATAREVDPLRIPPHHPHTSRQPPWCDPLGPFVVGGEDLDPFGPRRGGMIVDPLRSGFPRALIDPSSGLPNRLPPGAVPPGARFDPFGPIGTSPPGPNPDHLPPPGYDDMYL
B4: Protein disulfide-isomerase A4 (protein, UniProt P13667 21-645)
chain: VAGAEGPDEDSSNRENAIEDEEEEEEEDDDEEEDDLEVKEENGVLVLNDANFDNFVADKDTVLLEFYAPWCGHCKQFAPEYEKIANILKDKDPPIPVAKIDATSASVLASRFDVSGYPTIKILKKGQAVDYEGSRTQEEIVAKVREVSQPDWTPPPEVTLVLTKENFDEVVNDADIILVEFYAPWCGHCKKLAPEYEKAAKELSKRSPPIPLAKVDATAETDLAKRFDVSGYPTLKIFRKGRPYDYNGPREKYGIVDYMIEQSGPPSKEILTLKQVQEFLKDGDDVIIIGVFKGESDPAYQQYQDAANNLREDYKFHHTFSTEIAKFLKVSQGQLVVMQPEKFQSKYEPRSHMMDVQGSTQDSAIKDFVLKYALPLVGHRKVSNDAKRYTRRPLVVVYYSVDFSFDYRAATQFWRSKVLEVAKDFPEYTFAIADEEDYAGEVKDLGLSESGEDVNAAILDESGKKFAMEPEEFDSDTLREFVTAFKKGKLKPVIKSQPVPKNNKGPVKVVVGKTFDSIVMDPKKDVLIEFYAPWCGHCKQLEPVYNSLAKKYKGQKGLVIAKMDATANDVPSDRYKVEGFPTIYFAPSGDKKNPVKFEGGDRDLEHLSKFIEEHATKLSRTKEEL
B5: Regulator of G-protein signaling 10 (protein, UniProt O43665 1-181)
chain: MFNRAVSRLSRKRPPSDIHDSDGSSSSSHQSLKSTAKWAASLENLLEDPEGVKRFREFLKKEFSEENVLFWLACEDFKKMQDKTQMQEKAKEIYMTFLSSKASSQVNVEGQSRLNEKILEEPHPLMFQKLQDQIFNLMKYDSYSRFLKSDLFLKHKRTEEEEEDLPDAQTAAKRASRIYNT
B6: UDP-glucose 6-dehydrogenase (protein, UniProt O60701 1-494)
chain: MFEIKKICCIGAGYVGGPTCSVIAHMCPEIRVTVVDVNESRINAWNSPTLPIYEPGLKEVVESCRGKNLFFSTNIDDAIKEADLVFISVNTPTKTYGMGKGRAADLKYIEACARRIVQNSNGYKIVTEKSTVPVRAAESIRRIFDANTKPNLNLQVLSNPEFLAEGTAIKDLKNPDRVLIGGDETPEGQRAVQALCAVYEHWVPREKILTTNTWSSELSKLAANAFLAQRISSINSISALCEATGADVEEVATAIGMDQRIGNKFLKASVGFGGSCFQKDVLNLVYLCEALNLPEVARYWQQVIDMNDYQRRRFASRIIDSLFNTVTDKKIAILGFAFKKDTGDTRESSSIYISKYLMDEGAHLHIYDPKVPREQIVVDLSHPGVSEDDQVSRLVTISKDPYEACDGAHAVVICTEWDMFKELDYERIHKKMLKPAFIFDGRRVLDGLHNELQTIGFQIETIGKKVSSKRIPYAPSGEIPKFSLQDPPNKKPKV
B7: Dermcidin (protein, UniProt P81605 20-110)
chain: YDPEAASAPGSGNPCHEASAAQKENAGEDPGLARQAPKPRKQRSSLLEKGLDGAKKAVGGLGKLGKDAVEDLESVGKGAVHDVKDVLDSVL

Molecular target: tagged murine neurofibromin (full-length mNf1 cDNA with C-terminal TEV site / StrepII / 6X His tandem affinity tag) (mouse) (UniProt Q04690)
Assay: affinity purification with mass spectrometry; tagged mNf1 transfected into WT (NF1-replete) HEK293 cells; cleared lysate on MagStrep type3 XT (Strep-Tactin XT) beads, on ice 30 min, washed three times with Buffer W; bound proteins identified by MS

binding, binds:
endogenous human neurofibromin (from UniProt P21359 1-2839)

Molecular target: tagged murine neurofibromin (full-length mNf1 cDNA with C-terminal TEV site / StrepII / 6X His tandem affinity tag) (mouse) (UniProt Q04690)
Assay: affinity purification with mass spectrometry; tagged mNf1 transfected into NF1 null HEK293 cells; Strep-Tactin XT beads; 4 replicates against tagged empty vector; hits filtered by SAM, t-test and fold change, or found with WT only

binding, binds:
Small nuclear ribonucleoprotein G (from UniProt P62308 1-76)
Keratin, type II cytoskeletal 4 (from UniProt P19013 1-520)
Low-density lipoprotein receptor-related protein 2 (from UniProt P98164 26-4655)
βETA-arrestin-2 (from UniProt P32121 1-409)
Large proline-rich protein BAG6 (from UniProt P46379 1-1132)
Eukaryotic translation initiation factor 3 subunit K (from UniProt Q9UBQ5 1-218)
Insulin-like growth factor 2 mRNA-binding protein 2 (from UniProt Q9Y6M1 1-599)
Keratin, type I cuticular Ha1 (from UniProt Q15323 1-416)
Splicing factor 3B subunit 1 (from UniProt O75533 1-1304)
Keratin, type I cytoskeletal 17 (from UniProt Q04695 1-432)
Keratin, type I cuticular Ha6 (from UniProt O76013 1-467)
B1
B2
B3
B4
B5
B6
B7
